In patent US8389575B2, “Control of enzymatic peracid generation” (E.I. du Pont de Nemours and Company, priority 2008, dated 2013):

Experiments:
[1] = Peracetic acid production by Thermotoga maritima MSB8 perhydrolase, control by bicarbonate buffer concentration; type: biochemical; conditions: 100 mM triacetin
Protocol: A cell extract of a transformant expressing perhydrolase from Thermotoga maritima MSB8 (KLP18/pSW207) was prepared by passing a suspension of cell paste (20 wt % wet cell weight) in 0.05 M potassium phosphate buffer (pH 7.0) containing dithiothreitol (1 mM) twice through a French press having a working pressure of 16,000 psi (˜110 MPa). The crude extract was then centrifuged at 20,000×g to remove cellular debris, producing a clarified cell extract that was assayed for total soluble protein (Bicinchoninic Acid Kit for Protein Determination, Sigma Aldrich catalog #BCA1-KT). The clarified extract was heated for 20 min at 75° C., followed immediately by cooling in an ice/water bath. The resulting mixture was centrifuged to remove precipitated protein, and the supernatant collected and assayed for total soluble protein as before. […] The supernatant was frozen in dry ice and stored at −80° C.
Reactions (2 mL total volume) containing triacetin, hydrogen peroxide and heat-treated, centrifuged cell extract supernatant (prepared as described above) were run at 25° C. using sodium bicarbonate buffer concentrations listed in Tables 9 and 10. A control reaction for each reaction condition was run to determine the concentration of peracetic acid produced by chemical perhydrolysis of triacetin by hydrogen peroxide in the absence of added extract protein. Determination of the concentration of peracetic acid in the reaction mixtures was performed according to the method described by Karst et al., supra. The peracetic acid concentrations produced in 1 min, 5 min and 30 min using either 250 mM or 100 mM hydrogen peroxide are listed in Table 9 and Table 10.

[2] = Peracetic acid production and reaction pH over time, Thermotoga maritima MSB8 perhydrolase, selection of buffer, reactant and perhydrolase concentrations; type: biochemical
Protocol: Reactions (10 mL total volume) containing triacetin (100 mM), hydrogen peroxide (100 mM or 250 mM) and heat-treated, centrifuged cell extract supernatant (35 to 100 μg total heat-treated extract protein/mL, prepared as described in Example 13) prepared from an E. coli transformant expressing perhydrolase from Thermotoga maritima MSB8 (KLP18/pSW207) in sodium citrate (50 mM, pH 6.5) buffer, or in sodium bicarbonate buffer (1 mM to 5 mM, initial pH as indicated in Table 12), or in water without added buffer were run at 25° C. A control reaction for each reaction condition was run to determine the concentration of peracetic acid produced by chemical perhydrolysis of triacetin by hydrogen peroxide in the absence of added extract protein. Determination of the concentration of peracetic acid in the reaction mixtures was performed according to the method described by Karst et al., supra. The peracetic acid concentration produced at predetermined reaction times is listed in Table 11, and the corresponding reaction pH at each reaction time is listed in Table 12.

[3] = bicarbonate, 1 mM, H2O2 100 mM, total protein 75 μg/mL, initial pH 6.0
[4] = bicarbonate, 1 mM, H2O2 100 mM, total protein 100 μg/mL, initial pH 6.0
[5] = bicarbonate, 1 mM, H2O2 250 mM, total protein 35 μg/mL, initial pH 6.0
[6] = bicarbonate, 1 mM, H2O2 250 mM, total protein 50 μg/mL, initial pH 6.0
[7] = bicarbonate, 2.5 mM, H2O2 100 mM, total protein 50 μg/mL, initial pH 6.5
[8] = bicarbonate, 5 mM, H2O2 100 mM, total protein 50 μg/mL, initial pH 6.5
[9] = citrate, 50 mM, H2O2 100 mM, total protein 50 μg/mL, initial pH 6.5
[10] = no added buffer, H2O2 250 mM, total protein 75 μg/mL, initial pH 5.0
[11] = no added buffer, H2O2 250 mM, total protein 100 μg/mL, initial pH 5.0

B1: Thermotoga maritima MSB8 perhydrolase: acetyl xylan esterase with perhydrolase activity from Thermotoga maritima MSB8 (SEQ ID NO: 16), cell extract of E. coli KLP18/pSW207 (protein, listed as Thermotoga maritima)
chain: MAFFDLPLEELKKYRPERYEEKDFDEFWEETLAESEKFPLDPVFERMESHLKTVEAYDVTFSGYRGQRIKGWLLVPKLEEEKLPCVVQYIGYNGGRGFPHDWLFWPSMGYICFVMDTRGQGSGWLKGDTPDYPEGPVDPQYPGFMTRGILDPRTYYYRRVFTDAVRAVEAAASFPQVDQERIVIAGGSQGGGIALAVSALSKKAKALLCDVPFLCHFRRAVQLVDTHPYAEITNFLKTHRDKEEIVFRTLSYFDGVNFAARAKIPALFSVGLMDNICPPSTVFAAYNYYAGPKEIRIYPYNNHEGGGSFQAVEQVKFLKKLFEKG
pH, 1 min ([1]; NaHCO3 0 mM, initial pH 5.0, 1 min, 100 mM H2O2, 50 μg/mL heated extract total protein): 5.0
pH, 1 min ([1]; NaHCO3 0 mM, initial pH 5.0, 1 min, 250 mM H2O2, 50 μg/mL heated extract total protein): 5.0
pH, 5 min ([1]; NaHCO3 0 mM, initial pH 5.0, 5 min, 100 mM H2O2, 50 μg/mL heated extract total protein): 5.0
pH, 5 min ([1]; NaHCO3 0 mM, initial pH 5.0, 5 min, 250 mM H2O2, 50 μg/mL heated extract total protein): 5.0
pH, 30 min ([1]; NaHCO3 0 mM, initial pH 5.0, 30 min, 100 mM H2O2, 50 μg/mL heated extract total protein): 5.0
pH, 30 min ([1]; NaHCO3 0 mM, initial pH 5.0, 30 min, 250 mM H2O2, 50 μg/mL heated extract total protein): 5.0
pH, 1 min ([1]; NaHCO3 1.0 mM, initial pH 6.0, 1 min, 100 mM H2O2, 50 μg/mL heated extract total protein): 5.0
pH, 1 min ([1]; NaHCO3 1.0 mM, initial pH 6.0, 1 min, 250 mM H2O2, 50 μg/mL heated extract total protein): 5.0
pH, 5 min ([1]; NaHCO3 1.0 mM, initial pH 6.0, 5 min, 100 mM H2O2, 50 μg/mL heated extract total protein): 5.0
pH, 5 min ([1]; NaHCO3 1.0 mM, initial pH 6.0, 5 min, 250 mM H2O2, 50 μg/mL heated extract total protein): 5.0
pH, 30 min ([1]; NaHCO3 1.0 mM, initial pH 6.0, 30 min, 100 mM H2O2, 50 μg/mL heated extract total protein): 5.0
pH, 30 min ([1]; NaHCO3 1.0 mM, initial pH 6.0, 30 min, 250 mM H2O2, 50 μg/mL heated extract total protein): 5.0
pH, 1 min ([1]; NaHCO3 2.5 mM, initial pH 6.5, 1 min, 100 mM H2O2, 50 μg/mL heated extract total protein): 5.7
pH, 1 min ([1]; NaHCO3 2.5 mM, initial pH 6.5, 1 min, 250 mM H2O2, 50 μg/mL heated extract total protein): 5.5
pH, 5 min ([1]; NaHCO3 2.5 mM, initial pH 6.5, 5 min, 100 mM H2O2, 50 μg/mL heated extract total protein): 5.3
pH, 5 min ([1]; NaHCO3 2.5 mM, initial pH 6.5, 5 min, 250 mM H2O2, 50 μg/mL heated extract total protein): 5.3
pH, 30 min ([1]; NaHCO3 2.5 mM, initial pH 6.5, 30 min, 100 mM H2O2, 50 μg/mL heated extract total protein): 5.0
pH, 30 min ([1]; NaHCO3 2.5 mM, initial pH 6.5, 30 min, 250 mM H2O2, 50 μg/mL heated extract total protein): 5.0
pH, 1 min ([1]; NaHCO3 5.0 mM, initial pH 6.5, 1 min, 100 mM H2O2, 50 μg/mL heated extract total protein): 6.0
pH, 1 min ([1]; NaHCO3 5.0 mM, initial pH 6.5, 1 min, 250 mM H2O2, 50 μg/mL heated extract total protein): 6.0
pH, 5 min ([1]; NaHCO3 5.0 mM, initial pH 6.5, 5 min, 100 mM H2O2, 50 μg/mL heated extract total protein): 5.7
pH, 5 min ([1]; NaHCO3 5.0 mM, initial pH 6.5, 5 min, 250 mM H2O2, 50 μg/mL heated extract total protein): 5.7
pH, 30 min ([1]; NaHCO3 5.0 mM, initial pH 6.5, 30 min, 100 mM H2O2, 50 μg/mL heated extract total protein): 5.0
pH, 30 min ([1]; NaHCO3 5.0 mM, initial pH 6.5, 30 min, 250 mM H2O2, 50 μg/mL heated extract total protein): 5.0
pH, 1 min ([1]; NaHCO3 10 mM, initial pH 7.0, 1 min, 250 mM H2O2, 50 μg/mL heated extract total protein): 6.3
pH, 5 min ([1]; NaHCO3 10 mM, initial pH 7.0, 5 min, 250 mM H2O2, 50 μg/mL heated extract total protein): 5.5
pH, 30 min ([1]; NaHCO3 10 mM, initial pH 7.0, 30 min, 250 mM H2O2, 50 μg/mL heated extract total protein): 5.0
pH, 1 min ([1]; NaHCO3 10 mM, initial pH 8.1, 1 min, 100 mM H2O2, 50 μg/mL heated extract total protein): 6.5
pH, 5 min ([1]; NaHCO3 10 mM, initial pH 8.1, 5 min, 100 mM H2O2, 50 μg/mL heated extract total protein): 6.0
pH, 30 min ([1]; NaHCO3 10 mM, initial pH 8.1, 30 min, 100 mM H2O2, 50 μg/mL heated extract total protein): 5.3
pH, 1 min ([1]; NaHCO3 25 mM, initial pH 8.1, 1 min, 100 mM H2O2, 50 μg/mL heated extract total protein): 7.5
pH, 1 min ([1]; NaHCO3 25 mM, initial pH 8.1, 1 min, 250 mM H2O2, 50 μg/mL heated extract total protein): 7.0
pH, 5 min ([1]; NaHCO3 25 mM, initial pH 8.1, 5 min, 100 mM H2O2, 50 μg/mL heated extract total protein): 6.8
pH, 5 min ([1]; NaHCO3 25 mM, initial pH 8.1, 5 min, 250 mM H2O2, 50 μg/mL heated extract total protein): 6.5
pH, 30 min ([1]; NaHCO3 25 mM, initial pH 8.1, 30 min, 100 mM H2O2, 50 μg/mL heated extract total protein): 6.0
pH, 30 min ([1]; NaHCO3 25 mM, initial pH 8.1, 30 min, 250 mM H2O2, 50 μg/mL heated extract total protein): 6.0
pH, 1 min [2, 3]: 5.0
pH, 5 min [2, 3]: 5.0
pH, 30 min [2, 3]: 5.0
pH, 2 h [2, 3]: 5.0
pH, 18 h [2, 3]: 4.5
pH, 1 min [2, 4]: 5.0
pH, 5 min [2, 4]: 5.0
pH, 30 min [2, 4]: 5.0
pH, 2 h [2, 4]: 5.0
pH, 18 h [2, 4]: 4.5
pH, 1 min [2, 5]: 5.5
pH, 5 min [2, 5]: 5.0
pH, 30 min [2, 5]: 5.0
pH, 2 h [2, 5]: 5.0
pH, 18 h [2, 5]: 5.0
pH, 1 min [2, 6]: 5.0
pH, 5 min [2, 6]: 5.0
pH, 30 min [2, 6]: 5.0
pH, 2 h [2, 6]: 5.0
pH, 18 h [2, 6]: 5.0
pH, 1 min [2, 7]: 5.7
pH, 5 min [2, 7]: 5.0
pH, 30 min [2, 7]: 5.0
pH, 2 h [2, 7]: 5.0
pH, 18 h [2, 7]: 5.0
pH, 1 min [2, 8]: 6.0
pH, 5 min [2, 8]: 5.5
pH, 30 min [2, 8]: 5.0
pH, 2 h [2, 8]: 5.0
pH, 18 h [2, 8]: 5.0
pH, 1 min [2, 9]: 6.5
pH, 5 min [2, 9]: 6.5
pH, 30 min [2, 9]: 6.2
pH, 2 h [2, 9]: 6.0
pH, 18 h [2, 9]: 6.0
pH, 1 min [2, 10]: 5.0
pH, 5 min [2, 10]: 5.0
pH, 30 min [2, 10]: 5.0
pH, 2 h [2, 10]: 5.0
pH, 18 h [2, 10]: 4.5
pH, 1 min [2, 11]: 5.0
pH, 5 min [2, 11]: 5.0
pH, 30 min [2, 11]: 5.0
pH, 2 h [2, 11]: 5.0
pH, 18 h [2, 11]: 4.5
